B1: T-complex protein 1 subunit delta isoform a (protein, UniProt P50991-1 1-539)
chain: MPENVAPRSGATAGAAGGRGKGAYQDRDKPAQIRFSNISAAKAVADAIRTSLGPKGMDKMIQDGKGDVTITNDGATILKQMQVLHPAARMLVELSKAQDIEAGDGTTSVVIIAGSLLDSCTKLLQKGIHPTIISESFQKALEKGIEILTDMSRPVELSDRETLLNSATTSLNSKVVSQYSSLLSPMSVNAVMKVIDPATATSVDLRDIKIVKKLGGTIDDCELVEGLVLTQKVSNSGITRVEKAKIGLIQFCLSAPKTDMDNQIVVSDYAQMDRVLREERAYILNLVKQIKKTGCNVLLIQKSILRDALSDLALHFLNKMKIMVIKDIEREDIEFICKTIGTKPVAHIDQFTADMLGSAELAEEVNLNGSGKLLKITGCASPGKTVTIVVRGSNKLVIEEAERSIHDALCVIRCLVKKRALIAGGGAPEIELALRLTEYSRTLSGMESYCVRAFADAMEVIPSTLAENAGLNPISTVTELRNRHAQGEKTAGINVRKGGISNILEELVVQPLLVSVSALTLATETVRSILKIDDVVNTR
B2: T-complex protein 1 subunit beta isoform 2 (protein, UniProt P78371-2 1-488)
chain: MDKILLSSGRDASLMVTNDGATILKNIGVDNPAAKVLVDMSRVQDDEVGDGTTSVTVLAAELLREAESLIAKKIHPQTIIAGWREATKAAREALLSSAVDHGSDEVKFRQDLMNIAGTTLSSKLLTHHKDHFTKLAVEAVLRLKGSGNLEAIHIIKKLGGSLADSYLDEGFLLDKKIGVNQPKRIENAKILIANTGMDTDKIKIFGSRVRVDSTAKVAEIEHAEKEKMKEKVERILKHGINCFINRQLIYNYPEQLFGAAGVMAIEHADFAGVERLALVTGGEIASTFDHPELVKLGSCKLIEEVMIGEDKLIHFSGVALGEACTIVLRGATQQILDEAERSLHDALCVLAQTVKDSRTVYGGGCSEMLMAHAVTQLANRTPGKEAVAMESYAKALRMLPTIIADNAGYDSADLVAQLRAAHSEGNTTAGLDMREGTIGDMAILGITESFQVKRQVLLSAAEAAEVILRVDNIIKAAPRKRVPDHHPC
B3: T-complex protein 1 subunit gamma isoform c (protein, UniProt P49368-2 1-507)
chain: MMGHRPVLVLSQNTKRESGRKVQSGNINAAKIQVQHPAAKSMIEISRTQDEEVGDGTTSVIILAGEMLSVAEHFLEQQMHPTVVISAYRKALDDMISTLKKISIPVDISDSDMMLNIINSSITTKAISRWSSLACNIALDAVKMVQFEENGRKEIDIKKYARVEKIPGGIIEDSCVLRGVMINKDVTHPRMRRYIKNPRIVLLDSSLEYKKGESQTDIEITREEDFTRILQMEEEYIQQLCEDIIQLKPDVVITEKGISDLAQHYLMRANITAIRRVRKTDNNRIARACGARIVSRPEELREDDVGTGAGLLEIKKIGDEYFTFITDCKDPKACTILLRGASKEILSEVERNLQDAMQVCRNVLLDPQLVPGGGASEMAVAHALTEKSKAMTGVEQWPYRAVAQALEVIPRTLIQNCGASTIRLLTSLRAKHTQENCETWGVNGETGTLVDMKELGIWEPLAVKLQTYKTAVETAVLLLRIDDIVSGHKKKGDDQSRQGGAPDAGQE
B4: Protein phosphatase 1B isoform 1 (enzyme, UniProt O75688-1 1-479)
chain: MGAFLDKPKTEKHNAHGAGNGLRYGLSSMQGWRVEMEDAHTAVVGIPHGLEDWSFFAVYDGHAGSRVANYCSTHLLEHITTNEDFRAAGKSGSALELSVENVKNGIRTGFLKIDEYMRNFSDLRNGMDRSGSTAVGVMISPKHIYFINCGDSRAVLYRNGQVCFSTQDHKPCNPREKERIQNAGGSVMIQRVNGSLAVSRALGDYDYKCVDGKGPTEQLVSPEPEVYEILRAEEDEFIILACDGIWDVMSNEELCEYVKSRLEVSDDLENVCNWVVDTCLHKGSRDNMSIVLVCFSNAPKVSDEAVKKDSELDKHLESRVEEIMEKSGEEGMPDLAHVMRILSAENIPNLPPGGGLAGKRNVIEAVYSRLNPHRESDGASDEAEESGSQGKLVEALRQMRINHRGNYRQLLEEMLTSYRLAKVEGEESPAEPAATATSSNSDAGNPVTMQESHTESESGLAELDSSNEDAGTKMSGEKI

Sequences of proteins named here, by UniProt entry; tags and fusion partners are left off. A change or cut given only in a name is not applied to a line headed by its entry. A line that says so, or that is headed by a name, gives the form on record, which may keep a tag or linker. Residues count along the entry.
UniProt Q9Y238: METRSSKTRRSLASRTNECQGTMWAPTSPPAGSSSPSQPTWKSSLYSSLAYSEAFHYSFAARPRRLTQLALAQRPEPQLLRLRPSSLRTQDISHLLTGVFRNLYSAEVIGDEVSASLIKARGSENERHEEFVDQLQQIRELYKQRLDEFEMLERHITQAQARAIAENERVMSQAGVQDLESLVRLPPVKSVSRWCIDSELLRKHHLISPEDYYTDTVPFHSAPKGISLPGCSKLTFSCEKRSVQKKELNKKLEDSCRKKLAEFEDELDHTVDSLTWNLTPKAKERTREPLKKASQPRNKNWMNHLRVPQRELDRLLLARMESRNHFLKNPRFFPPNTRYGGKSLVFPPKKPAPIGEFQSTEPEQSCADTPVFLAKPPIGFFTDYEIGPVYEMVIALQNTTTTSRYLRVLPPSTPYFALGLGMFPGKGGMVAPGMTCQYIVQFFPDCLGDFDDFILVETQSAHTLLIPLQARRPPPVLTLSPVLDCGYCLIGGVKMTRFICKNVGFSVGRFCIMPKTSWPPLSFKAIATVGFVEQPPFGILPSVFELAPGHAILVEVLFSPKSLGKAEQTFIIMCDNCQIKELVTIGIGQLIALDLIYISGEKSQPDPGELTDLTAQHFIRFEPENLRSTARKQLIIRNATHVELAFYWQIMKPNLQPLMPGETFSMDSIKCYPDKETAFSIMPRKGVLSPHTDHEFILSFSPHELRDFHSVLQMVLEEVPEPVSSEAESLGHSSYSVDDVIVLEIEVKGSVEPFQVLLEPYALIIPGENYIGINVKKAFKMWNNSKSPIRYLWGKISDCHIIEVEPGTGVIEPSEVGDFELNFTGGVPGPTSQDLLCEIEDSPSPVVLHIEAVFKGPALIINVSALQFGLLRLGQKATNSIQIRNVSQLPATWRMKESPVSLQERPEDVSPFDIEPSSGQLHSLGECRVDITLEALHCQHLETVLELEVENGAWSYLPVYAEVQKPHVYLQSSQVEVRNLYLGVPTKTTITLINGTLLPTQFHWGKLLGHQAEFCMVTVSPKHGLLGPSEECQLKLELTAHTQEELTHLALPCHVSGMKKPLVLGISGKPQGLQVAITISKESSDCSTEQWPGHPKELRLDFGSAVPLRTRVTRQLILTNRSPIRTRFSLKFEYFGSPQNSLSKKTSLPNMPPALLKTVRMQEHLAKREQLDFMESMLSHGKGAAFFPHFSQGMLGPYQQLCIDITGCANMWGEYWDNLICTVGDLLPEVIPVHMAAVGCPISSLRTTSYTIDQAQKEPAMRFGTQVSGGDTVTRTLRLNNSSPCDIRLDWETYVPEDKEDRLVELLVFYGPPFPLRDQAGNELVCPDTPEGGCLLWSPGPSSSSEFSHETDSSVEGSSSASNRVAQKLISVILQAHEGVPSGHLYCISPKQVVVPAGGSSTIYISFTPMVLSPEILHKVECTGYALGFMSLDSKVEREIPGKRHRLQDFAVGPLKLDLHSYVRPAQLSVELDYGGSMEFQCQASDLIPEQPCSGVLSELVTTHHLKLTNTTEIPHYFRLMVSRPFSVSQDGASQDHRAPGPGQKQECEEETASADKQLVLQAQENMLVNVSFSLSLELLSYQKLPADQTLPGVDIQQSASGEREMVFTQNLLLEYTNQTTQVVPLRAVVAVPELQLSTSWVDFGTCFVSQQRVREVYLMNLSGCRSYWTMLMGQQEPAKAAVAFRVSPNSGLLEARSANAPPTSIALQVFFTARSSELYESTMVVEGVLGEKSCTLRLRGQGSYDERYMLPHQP
UniProt Q9BUF5: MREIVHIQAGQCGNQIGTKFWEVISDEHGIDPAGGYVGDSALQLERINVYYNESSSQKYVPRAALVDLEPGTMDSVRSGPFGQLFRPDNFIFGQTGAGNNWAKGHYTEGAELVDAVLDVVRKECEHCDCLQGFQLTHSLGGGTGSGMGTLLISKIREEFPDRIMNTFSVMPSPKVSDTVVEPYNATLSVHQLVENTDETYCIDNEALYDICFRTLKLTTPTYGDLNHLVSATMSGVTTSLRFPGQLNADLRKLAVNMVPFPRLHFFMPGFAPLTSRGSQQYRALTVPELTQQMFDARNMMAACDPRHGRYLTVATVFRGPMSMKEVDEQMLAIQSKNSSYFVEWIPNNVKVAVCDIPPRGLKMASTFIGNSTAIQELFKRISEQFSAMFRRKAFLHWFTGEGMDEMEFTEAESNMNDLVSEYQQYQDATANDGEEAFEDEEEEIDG
UniProt Q9BVA1: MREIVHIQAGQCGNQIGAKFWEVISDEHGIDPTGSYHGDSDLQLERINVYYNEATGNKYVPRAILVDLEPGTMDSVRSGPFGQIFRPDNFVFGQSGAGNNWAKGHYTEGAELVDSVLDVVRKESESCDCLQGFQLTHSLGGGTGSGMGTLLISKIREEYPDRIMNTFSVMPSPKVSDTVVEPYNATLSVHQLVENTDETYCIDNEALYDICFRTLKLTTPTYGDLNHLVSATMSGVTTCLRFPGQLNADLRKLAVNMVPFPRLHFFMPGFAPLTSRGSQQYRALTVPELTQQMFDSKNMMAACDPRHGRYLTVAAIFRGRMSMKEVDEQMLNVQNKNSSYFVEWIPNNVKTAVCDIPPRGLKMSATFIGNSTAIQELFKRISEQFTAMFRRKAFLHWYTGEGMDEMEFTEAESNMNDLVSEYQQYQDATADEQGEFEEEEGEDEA
UniProt P68371: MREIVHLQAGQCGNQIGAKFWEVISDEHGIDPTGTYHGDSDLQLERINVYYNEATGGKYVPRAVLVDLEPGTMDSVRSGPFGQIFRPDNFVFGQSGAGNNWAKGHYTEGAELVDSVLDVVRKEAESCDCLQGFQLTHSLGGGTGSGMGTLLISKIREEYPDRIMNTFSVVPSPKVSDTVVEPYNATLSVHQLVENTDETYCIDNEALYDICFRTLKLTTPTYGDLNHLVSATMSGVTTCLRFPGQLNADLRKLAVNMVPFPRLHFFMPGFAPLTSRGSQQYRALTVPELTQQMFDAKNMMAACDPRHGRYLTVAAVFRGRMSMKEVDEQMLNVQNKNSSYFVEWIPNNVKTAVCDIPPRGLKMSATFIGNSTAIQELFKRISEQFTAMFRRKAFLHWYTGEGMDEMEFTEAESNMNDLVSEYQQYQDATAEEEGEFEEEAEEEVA
UniProt P07437: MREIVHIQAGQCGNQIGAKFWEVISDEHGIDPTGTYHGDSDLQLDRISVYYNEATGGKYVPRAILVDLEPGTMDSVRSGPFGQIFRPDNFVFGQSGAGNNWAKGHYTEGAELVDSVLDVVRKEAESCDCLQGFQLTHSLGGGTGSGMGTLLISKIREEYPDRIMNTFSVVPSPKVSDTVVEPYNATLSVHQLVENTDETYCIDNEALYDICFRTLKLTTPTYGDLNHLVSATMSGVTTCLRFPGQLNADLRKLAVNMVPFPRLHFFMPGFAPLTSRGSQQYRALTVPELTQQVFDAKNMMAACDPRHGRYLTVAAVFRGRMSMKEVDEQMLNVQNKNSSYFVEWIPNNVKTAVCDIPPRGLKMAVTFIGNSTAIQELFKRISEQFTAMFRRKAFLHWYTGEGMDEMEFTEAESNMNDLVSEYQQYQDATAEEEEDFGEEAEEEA
UniProt P04406, residues 43-335: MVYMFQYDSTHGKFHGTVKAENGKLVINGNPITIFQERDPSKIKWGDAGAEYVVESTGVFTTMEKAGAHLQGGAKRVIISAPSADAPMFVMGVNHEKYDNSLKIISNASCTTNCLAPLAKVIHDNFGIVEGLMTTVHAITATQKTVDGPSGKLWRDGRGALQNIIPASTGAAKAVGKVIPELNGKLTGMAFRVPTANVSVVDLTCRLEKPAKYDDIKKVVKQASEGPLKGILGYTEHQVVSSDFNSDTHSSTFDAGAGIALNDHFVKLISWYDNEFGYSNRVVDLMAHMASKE
UniProt Q71U36, residues 36-451: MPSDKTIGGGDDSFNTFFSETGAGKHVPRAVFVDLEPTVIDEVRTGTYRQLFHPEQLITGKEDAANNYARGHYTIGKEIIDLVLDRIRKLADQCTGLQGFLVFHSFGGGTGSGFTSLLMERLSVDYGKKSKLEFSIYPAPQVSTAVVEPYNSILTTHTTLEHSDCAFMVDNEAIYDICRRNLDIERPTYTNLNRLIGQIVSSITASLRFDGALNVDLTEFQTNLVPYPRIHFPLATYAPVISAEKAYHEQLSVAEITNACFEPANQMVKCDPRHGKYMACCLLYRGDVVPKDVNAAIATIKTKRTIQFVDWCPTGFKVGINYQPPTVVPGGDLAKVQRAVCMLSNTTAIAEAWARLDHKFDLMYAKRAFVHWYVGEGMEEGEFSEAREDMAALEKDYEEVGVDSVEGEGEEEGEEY
ruvB-like 1 isoform 2 (Q9Y265-2, form named): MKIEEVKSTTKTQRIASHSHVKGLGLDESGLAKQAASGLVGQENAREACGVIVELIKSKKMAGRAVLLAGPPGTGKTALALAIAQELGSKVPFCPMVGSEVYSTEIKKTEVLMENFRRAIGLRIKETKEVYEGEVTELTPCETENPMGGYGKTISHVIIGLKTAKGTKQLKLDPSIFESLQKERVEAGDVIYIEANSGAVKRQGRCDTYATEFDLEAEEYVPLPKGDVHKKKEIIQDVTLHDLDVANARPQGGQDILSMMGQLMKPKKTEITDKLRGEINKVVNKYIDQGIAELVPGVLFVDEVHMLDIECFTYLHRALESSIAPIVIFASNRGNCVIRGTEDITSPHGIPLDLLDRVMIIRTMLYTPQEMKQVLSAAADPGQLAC

The results in this text go back to article PMC7642295.

No constants are given. Whether binding was seen depends on the method and setting. Binding seen in cells or lysates may run through a third protein. Here binding means that the protein was enriched with, or labelled near, the bait; the list need not be complete.

The test deals with 3 × FLAG-tagged human DLEC1 (deleted in lung and esophageal cancer 1) (human) (UniProt Q9Y238). Put plainly: affinity purification with mass spectrometry; 3 × FLAG-hDLEC1 or empty vector transiently expressed in HEK293F; 20 mg lysate in 1% Triton X-100 buffer with anti-FLAG antibody agarose beads overnight at 4 °C; bands enriched on the CBB-stained gel cut out and identified by LC-MS/MS.
“Tubulin beta-6 chain isoform 1 (from UniProt Q9BUF5 1-446)”: the binding result is given as “binds”.
The result for “Tubulin beta-2B chain (from UniProt Q9BVA1 1-445)” reads “binds”; that for “Tubulin beta-4B chain (from UniProt P68371 1-445)”, “binds”.
On to “Tubulin alpha-1B chain (from UniProt P68363-1 1-451)”, for which the binding entry is on record as “binds”.
The result for “Heat shock 70 kDa protein 1A (from UniProt P0DMV8-1 1-641)” reads “binds”; that for “T-complex protein 1 subunit epsilon isoform a (from UniProt P48643-1 1-541)”, “binds”; that for “T-complex protein 1 subunit theta isoform 1 (from UniProt P50990-1 1-548)”, “binds”.
Take “Tubulin beta chain isoform b (from UniProt P07437 1-444)”: the binding entry is “binds”.
The result for “Tubulin beta-3 chain isoform 1 (from UniProt Q13509-1 1-450)” reads “binds”; that for “Glyceraldehyde-3-phosphate dehydrogenase isoform 2 (from UniProt P04406-2 1-293) (enzyme)”, “binds”.
The result for “Tubulin alpha-1A chain isoform 2 (from UniProt Q71U36-2 1-416)” reads “binds”.
On to “ruvB-like 1 isoform 2 (from UniProt Q9Y265-2 1-386)”, for which the binding result is listed as “binds”.
The entry for “T-complex protein 1 subunit zeta isoform a (from UniProt P40227-1 1-531)” is “binds”; for B1 it is “binds”.
The entry for B2 is “binds”; for B3 it is “binds”.
For B4, the binding entry was “binds”.
